The values that follow come from the supplement of paper PMC4862054.

Each structure is given as a SMILES string. Most values lie at the level of the controls, where differences are scatter.

What all share (assay): normalised response (% of control), CellTox Green; higher = less cell death (100 = DMSO, 0 = benzethonium chloride kill control)
Holding throughout (details): incubation time: 72 h

Assay [1] has as its system MFM-223. The procedure: (§1)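 DSRT, 72 h incubation, CellTox Green / CellTiter-Glo readout. Signal is normalised to DMSO and benzethonium chloride controls. Value is the normalised response at the lowest tested concentration.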
Assay [2] concerns HCC1937. As for the experimental part:
as §1

Assay [3] concerns BT-549. As for the experimental part: as §1
The test system of assay [4] is CAL-85-1. The procedure: as §1
For assay [5], the system named is MDA-MB-468. The procedure:
as §1

Assay [6] concerns CAL-120. The procedure: as §1
In assay [7] the test system is DU-4475. The procedure:
as §1

Assay [8] has as its system HCC1143. As for the experimental part:
as §1

Assay [9] concerns BT-474. The procedure: as §1
Assay [10] concerns Hs578T. As for the experimental part:
as §1

The test system of assay [11] is CAL-148. As for the experimental part: as §1
The subject of assay [12] is HDQ-P1. As for the experimental part:
as §1

Assay [13] relates to CAL-51. As for the experimental part: as §1
For assay [14], the system named is HCC1599. As for the experimental part:
as §1

For assay [15], the system named is MDA-MB-231. As for the experimental part:
as §1

Assay [16] relates to MCF-10A. As for the experimental part:
as §1

Assay [17] relates to MDA-MB-453. The procedure: as §1
Assay [18] deals with MDA-MB-436. As for the experimental part:
as §1

With `CN1CCN(c2nc(C3=C(c4c[nH]c5ccccc45)C(=O)NC3=O)c3ccccc3n2)CC1` [Sotrastaurin] (1 nM), the normalised response in [1] is 102%; in assay [2] it was 88.1%; in [3], 102%; in assay [4], 98.3%; in assay [5], 125%; in [6], 100%. Further, the normalised response in assay [7] is 99.2%; in assay [8], 119%; in assay [9], 98.8%; in [10], 52.1%; in [11], 66.8%; in assay [12], 99.9%. Besides, the normalised response in assay [13] turned out to be 97.5%; in assay [14], 92.2%; in [15], 105%; in assay [16] it was 90.9%; in [17], 103%; in assay [18] it was 74.3%.

Regarding `O=C1NC(=O)[C@@H](c2cn3c4c(cccc24)CCC3)[C@@H]1c1c[nH]c2ccccc12` [Tivantinib] (0.1 nM), the normalised response in assay [1] is 98.7%; in assay [2] it was 76.5%; in [3], 93.6%; in [4], 92.5%; in [5] it was 115%; in assay [6], 94.1%. Also, the normalised response worked out at 101% in assay [7]; 98.8% in assay [8]; 96.3% in assay [9]; 109% in assay [10]; 103% in assay [11]; 103% in assay [12]. Besides, the normalised response in assay [13] came to 94.7%; in [14] it was 99.8%; in assay [15], 106%; in assay [16], 80.9%; in [17] it was 111%; in assay [18], 94.7%.

With `CC(C)C[C@@H](C(=O)N[C@H](C(=O)OC1CCCC1)c1ccccc1)[C@H](O)C(=O)NO` [Tosedostat] (1 nM), the normalised response in assay [1] is 104%; in assay [2] it was 82.2%; in [3], 101%; in assay [4], 93.3%; in [5], 104%; in assay [6], 106%. In addition, the normalised response amounted to 105% in [7]; 73.1% in [8]; 101% in [9]; 73% in assay [10]; 102% in assay [11]; 53.4% in assay [12]. The normalised response in assay [13] came to 119%; in [14], 107%; in assay [15] it was 105%; in assay [16], 97.2%; in [17], 101%; in assay [18], 102%.

For `CN1CCc2c(c3ccccc3n2Cc2ccc(C(=O)NO)cc2)C1` [Tubastatin A] (1 nM), the normalised response came to 93.1% in assay [1]; 109% in [2]; 97.2% in assay [3]; 101% in assay [4]; 95.2% in [5]; 99.7% in assay [6]. Also, the normalised response in assay [7] came to 105%; in assay [8] it was 104%; in assay [9] it was 93.2%; in assay [10], 101%; in assay [11], 103%; in assay [12], 110%. In addition, the normalised response was determined as 110% in [13]; 111% in assay [14]; 103% in [15]; 99% in assay [16]; 105% in assay [17]; 74.7% in assay [18].

Consider `CCCCC(=O)OCC(=O)[C@]1(O)Cc2c(O)c3c(c(O)c2[C@@H](O[C@H]2C[C@H](NC(=O)C(F)(F)F)[C@H](O)[C@H](C)O2)C1)C(=O)c1c(OC)cccc1C3=O` [Valrubicin] (0.5 nM), for which the normalised response in assay [1] was determined as 71.1%; in [2], 111%; in assay [3], 99.9%; in [4], 88.8%; in assay [5], 96.4%; in assay [6], 108%. The normalised response in [7] amounted to 116%; in assay [8] it was 136%; in assay [9] it was 99.3%; in [10], 119%; in [11], 101%; in [12], 99.4%. Further, the normalised response in [13] came to 102%; in [14], 116%; in assay [15], 76%; in [16], 112%; in assay [17], 105%; in assay [18], 108%.
